# Measured values as given in the supplement of paper PMC5407854, “Inhibitor of ppGalNAc-T3-mediated O-glycosylation blocks cancer cell invasiveness and lowers FGF23 levels” (eLife, 2017).
# This is one part of the list. Small differences around the control level are noise.
# Test system: ppGalNAc-T3 sensor
# Assay: T3 sensor activation Q score (MG/GFP ratio z-score vs DMSO controls) (SD units); higher = more sensor activation (inhibition of ppGalNAc-T3 glycosylation)
# Settings: HEK293 sensor cells; 10 µM; 6 h
# Method: (§1)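 Cells were treated with compound at 10 uM for 6 h, then MG/GFP ratio was read by flow cytometry (10,000 cells per well, duplicate wells). Q = (R - R_neg)/SD_neg relative to DMSO vehicle controls; the signal rises when the glycosyltransferase is inhibited.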
row,Structure (SMILES),T3 sensor activation Q score
1,CCN1CCN(C2CC(=O)N(c3ccc(OC)cc3)C2=O)CC1 (stereo unspecified),-0.02
2,Cc1cc(C)n(C2CC(=O)N(c3cccc(Cl)c3)C2=O)n1 (stereo unspecified),0.475
3,CC(=O)c1ccc(N2CCN(Cc3ccc(N(C)C)cc3)CC2)cc1,-0.125
4,CC(=O)Nc1ccc(S(=O)(=O)Nc2cccc(F)c2)cc1,0.605
5,Brc1ccc2[nH]c3c(c2c1)CCCC3NCc1ccccc1 (stereo unspecified),0.89
6,CCC(=O)N1CCN(c2ccc([N+](=O)[O-])cc2)CC1,0.35
7,Cc1cccc(CN2CCC(O)CC2)c1,0.2
8,O=C1c2ccccc2-c2onc3c(Br)cc(O)c1c23,0.455
9,NS(=O)(=O)c1ccc(NC(=O)c2ccc(-c3ccccc3)cc2)cc1,-0.565
10,Cc1ccc(C)c(CN2CCN(c3ccccn3)CC2)c1,-0.695
11,Fc1ccc(CN2CCN(c3ccccn3)CC2)cc1,0.785
12,CC(C)(C)c1ccc(C(=O)Nc2ccc(F)cc2)cc1,0.545
13,O=S(=O)(Nc1cccc(F)c1)c1ccc(-c2ccccc2)cc1,0.475
14,Cc1ccc(S(=O)(=O)N=C2CN(C)C(=O)N2C)cc1,-0.86
15,CCc1ccccc1NC(=O)Nc1cccc(Cl)c1,0.065
16,Cc1ccc(S(=O)(=O)Nc2ccc(Cl)c(Cl)c2)cc1,0.46
17,NNC(=O)CCc1ccccc1O,-0.465
18,COc1ccccc1CNC(=O)c1ccccc1I,0.56
19,CCCc1cc(=O)[nH]c(SCC(N)=O)n1,-0.16
20,COc1ccccc1NCc1ccc([N+](=O)[O-])s1,0.205

row,Structure (SMILES),T3 sensor activation Q score
1,c1ccc(Oc2cccc(CN3CCSCC3)c2)cc1,-0.075
2,OC(COC1C2CC3CC(C2)CC1C3)CN1CCCCC1 (stereo unspecified),0.8
3,CCOc1cc(CN2CCc3ccccc3C2)ccc1OC,0.685
4,CC(NS(=O)(=O)c1ccc(Br)cc1)c1ccccc1 (stereo unspecified),0.26
5,CCC(=O)Nc1nc2ccccc2n1CCN1CCOCC1,-0.04
6,COc1ccccc1CNC(=O)c1cccc(I)c1,1.06
7,CC12CC3(C)CC(C(=O)O)(C1)CC(C(=O)O)(C2)C3,-0.115
8,O=C(CC(O)(c1ccccc1)C(F)(F)C(F)F)c1cccs1 (stereo unspecified),0.815
9,CCCCOc1ccc(CN2CCN(c3ccccc3F)CC2)cc1,0.04
10,CC(=O)c1cc2c(cc1N)OCCO2,-0.24
11,O=C(Nc1cccc(Cl)c1)c1cnccn1,0.3
12,NC(=O)c1ccccc1NC(=O)c1ccc(-c2ccccc2)cc1,0.95
13,O=c1[nH]c(=O)c2c(-c3ccccc3)csc2[nH]1,-0.405
14,CC(=O)C1=C(O)C(=O)N(c2cccc(C)c2)C1c1ccccc1 (stereo unspecified),-0.72
15,CC(Cc1c[nH]c2ccccc12)NC(N)=O (stereo unspecified),0.1
16,O=C1CC(Nc2ccccc2)C(=O)N1c1cccc(Cl)c1 (stereo unspecified),-0.02
17,NNC(=O)c1n[nH]c2c1CCC2,0.925
18,COc1ccc(NC(=O)N2CCCc3ccccc32)cc1,-0.375
19,CNC(=O)c1c(O)c2ccccc2[nH]c1=O,0.145
20,CN1CCN(C(=O)c2ccccc2[N+](=O)[O-])CC1,-0.02

# A run of entries of the results above:
row,Structure (SMILES),T3 sensor activation Q score
15,CC(Cc1c[nH]c2ccccc12)NC(N)=O (stereo unspecified),0.1
16,O=C1CC(Nc2ccccc2)C(=O)N1c1cccc(Cl)c1 (stereo unspecified),-0.02
17,NNC(=O)c1n[nH]c2c1CCC2,0.925
18,COc1ccc(NC(=O)N2CCCc3ccccc32)cc1,-0.375

# Test system: ppGalNAc-T2 sensor
# Assay: T2 sensor activation Q score (MG/GFP ratio z-score vs DMSO controls) (SD units); higher = more sensor activation (inhibition of ppGalNAc-T2 glycosylation)
# Settings: HEK293 sensor cells; 10 µM; 6 h
# Method: as §1
row,Structure (SMILES),T2 sensor activation Q score
1,Brc1ccc2[nH]c3c(c2c1)CCCC3NCc1ccccc1 (stereo unspecified),-1.2
2,CCC(=O)N1CCN(c2ccc([N+](=O)[O-])cc2)CC1,-0.53
3,NS(=O)(=O)c1ccc(NC(=O)c2ccc(-c3ccccc3)cc2)cc1,0.035
4,Cc1ccc(C)c(CN2CCN(c3ccccn3)CC2)c1,-0.39
5,COc1ccccc1CNC(=O)c1ccccc1I,0.35
6,CCCc1cc(=O)[nH]c(SCC(N)=O)n1,-0.935
7,COc1ccccc1NCc1ccc([N+](=O)[O-])s1,-0.785
8,CCOc1cc(CN2CCc3ccccc3C2)ccc1OC,-0.515
9,CCCCOc1ccc(CN2CCN(c3ccccc3F)CC2)cc1,0.075
10,O=c1[nH]c(=O)c2c(-c3ccccc3)csc2[nH]1,-0.575
11,O=C1CC(Nc2ccccc2)C(=O)N1c1cccc(Cl)c1 (stereo unspecified),-0.585
